# Reference: the supplement of paper PMC11438910
# The other results are listed elsewhere or left out. Most of these values are background signal.
# B1: 4-80.3 (protein)
# chain 1: QVQLQESGPGLVKPSETLSLTCAVSGGSFSSYWWSWIRQPPGKGLEWIGEINGNSGSTNYNPSLKSRVTISKDASKNQFSLKLSSVTAADTAVYYCARYKNVWGRGVLVTVSS
# chain 2: DVVMTQSPLSLPITPGQPASISCRSSQSLVHSNGNTYLSWYQQKPGQPPRRLIYQVSNRDSGVPDRFSGSGAGTDFTLKISRVEAEDVGVYYCGQGTNVPTFGQGTKVEIK
# B2: 4-127.1 (protein)
# chain 1: QVQLQESGPGLVKPSETLSLTCAVSDYSINTGHGWTWIRQPPGKGLEWIGYIGGSSGSPNYNPSLKSRVTISKDTSKNELSLKLNSVTAADTAVYYCARRIPADRSGNDFWGQGVLVTVSS
# chain 2: QSVLTQPPSVSGDPGQRVTISCTGSSSNIGGFYGYWYQQFPGTAPKLLIYDNNKRPSGISDRFSGSKSGTSASLTITGLQPGDEADYYCGSWDSSLSAHVFGSGTKLTVL
# How the values were obtained:
# Assay in all cases: fluorescence intensity of antibody binding to polysaccharide-coupled beads; higher = stronger binding
# [1] = molecular target: pneumococcal polysaccharide Pn8
# [2] = molecular target: pneumococcal polysaccharide Pn9A
# [3] = molecular target: pneumococcal polysaccharide Pn9L
# [4] = molecular target: pneumococcal polysaccharide Pn9N
# [5] = molecular target: pneumococcal polysaccharide Pn9V
# [6] = molecular target: pneumococcal polysaccharide C-Poly-1
# [7] = molecular target: pneumococcal polysaccharide C-Poly-2
# [8] = molecular target: pneumococcal polysaccharide Pn1
# [9] = molecular target: pneumococcal polysaccharide Pn10A
# [10] = molecular target: pneumococcal polysaccharide Pn10B
# [11] = molecular target: pneumococcal polysaccharide Pn10C
# [12] = molecular target: pneumococcal polysaccharide Pn10F
# [13] = molecular target: pneumococcal polysaccharide Pn11A
# [14] = molecular target: pneumococcal polysaccharide Pn11B
# [15] = molecular target: pneumococcal polysaccharide Pn11C
# [16] = molecular target: pneumococcal polysaccharide Pn11D
# [17] = molecular target: pneumococcal polysaccharide Pn11F
# [18] = molecular target: pneumococcal polysaccharide Pn12A
# [19] = molecular target: pneumococcal polysaccharide Pn12B
# [20] = molecular target: pneumococcal polysaccharide Pn12F
# [21] = antibody concentration 0.1 ng/mL
# [22] = antibody concentration 0.534724 ng/mL
# [23] = antibody concentration 2.8593 ng/mL
# [24] = antibody concentration 15.2894 ng/mL
# [25] = antibody concentration 81.7561 ng/mL
# [26] = antibody concentration 437.17 ng/mL
# [27] = antibody concentration 2337.65 ng/mL
# [28] = antibody concentration 12500 ng/mL
binder,measurement,setting,value
B1,fluorescence intensity,[1]; [21],22.2 MFI
same,fluorescence intensity,[1]; [22],22.2 MFI
same,fluorescence intensity,[1]; [23],23.8 MFI
same,fluorescence intensity,[1]; [24],23 MFI
same,fluorescence intensity,[1]; [25],24.2 MFI
same,fluorescence intensity,[1]; [26],27.5 MFI
same,fluorescence intensity,[1]; [27],42 MFI
same,fluorescence intensity,[1]; [28],124 MFI
same,fluorescence intensity,[2]; [21],21 MFI
same,fluorescence intensity,[2]; [22],19 MFI
same,fluorescence intensity,[2]; [23],20 MFI
same,fluorescence intensity,[2]; [24],18.5 MFI
same,fluorescence intensity,[2]; [25],20.5 MFI
same,fluorescence intensity,[2]; [26],21 MFI
same,fluorescence intensity,[2]; [27],43.5 MFI
same,fluorescence intensity,[2]; [28],196 MFI
same,fluorescence intensity,[3]; [21],18.8 MFI
same,fluorescence intensity,[3]; [22],17 MFI
same,fluorescence intensity,[3]; [23],17 MFI
same,fluorescence intensity,[3]; [24],17 MFI
same,fluorescence intensity,[3]; [25],16.8 MFI
same,fluorescence intensity,[3]; [26],20.2 MFI
same,fluorescence intensity,[3]; [27],28.2 MFI
same,fluorescence intensity,[3]; [28],77.2 MFI
same,fluorescence intensity,[4]; [21],17.5 MFI
same,fluorescence intensity,[4]; [22],15.2 MFI
same,fluorescence intensity,[4]; [23],14 MFI
same,fluorescence intensity,[4]; [24],15.5 MFI
same,fluorescence intensity,[4]; [25],16.5 MFI
same,fluorescence intensity,[4]; [26],16.5 MFI
same,fluorescence intensity,[4]; [27],30.2 MFI
same,fluorescence intensity,[4]; [28],140 MFI
same,fluorescence intensity,[5]; [21],14.8 MFI
same,fluorescence intensity,[5]; [22],15 MFI
same,fluorescence intensity,[5]; [23],15.2 MFI
same,fluorescence intensity,[5]; [24],15 MFI
same,fluorescence intensity,[5]; [25],15.5 MFI
same,fluorescence intensity,[5]; [26],18.2 MFI
same,fluorescence intensity,[5]; [27],25 MFI
same,fluorescence intensity,[5]; [28],50.2 MFI
B2,fluorescence intensity,[6]; [21],26 MFI
same,fluorescence intensity,[6]; [22],26.5 MFI
same,fluorescence intensity,[6]; [23],25.2 MFI
same,fluorescence intensity,[6]; [24],25.5 MFI
same,fluorescence intensity,[6]; [25],27 MFI
same,fluorescence intensity,[6]; [26],27 MFI
same,fluorescence intensity,[6]; [27],32.8 MFI
same,fluorescence intensity,[6]; [28],106 MFI
same,fluorescence intensity,[7]; [21],19.8 MFI
same,fluorescence intensity,[7]; [22],20.5 MFI
same,fluorescence intensity,[7]; [23],20 MFI
same,fluorescence intensity,[7]; [24],20 MFI
same,fluorescence intensity,[7]; [25],19 MFI
same,fluorescence intensity,[7]; [26],24.2 MFI
same,fluorescence intensity,[7]; [27],28 MFI
same,fluorescence intensity,[7]; [28],87.5 MFI
same,fluorescence intensity,[8]; [21],13 MFI
same,fluorescence intensity,[8]; [22],15 MFI
same,fluorescence intensity,[8]; [23],13.5 MFI
same,fluorescence intensity,[8]; [24],13.5 MFI
same,fluorescence intensity,[8]; [25],15.2 MFI
same,fluorescence intensity,[8]; [26],15 MFI
same,fluorescence intensity,[8]; [27],18.5 MFI
same,fluorescence intensity,[8]; [28],30.2 MFI
same,fluorescence intensity,[9]; [21],27 MFI
same,fluorescence intensity,[9]; [22],26.5 MFI
same,fluorescence intensity,[9]; [23],27.5 MFI
same,fluorescence intensity,[9]; [24],26.8 MFI
same,fluorescence intensity,[9]; [25],28.5 MFI
same,fluorescence intensity,[9]; [26],27 MFI
same,fluorescence intensity,[9]; [27],27.2 MFI
same,fluorescence intensity,[9]; [28],34 MFI
same,fluorescence intensity,[10]; [21],27.2 MFI
same,fluorescence intensity,[10]; [22],23.2 MFI
same,fluorescence intensity,[10]; [23],25 MFI
same,fluorescence intensity,[10]; [24],24.2 MFI
same,fluorescence intensity,[10]; [25],24.2 MFI
same,fluorescence intensity,[10]; [26],22.8 MFI
same,fluorescence intensity,[10]; [27],25.5 MFI
same,fluorescence intensity,[10]; [28],27 MFI
same,fluorescence intensity,[11]; [21],16.5 MFI
same,fluorescence intensity,[11]; [22],16 MFI
same,fluorescence intensity,[11]; [23],16 MFI
same,fluorescence intensity,[11]; [24],16.5 MFI
same,fluorescence intensity,[11]; [25],16.5 MFI
same,fluorescence intensity,[11]; [26],18.5 MFI
same,fluorescence intensity,[11]; [27],18 MFI
same,fluorescence intensity,[11]; [28],21 MFI
same,fluorescence intensity,[12]; [21],18.5 MFI
same,fluorescence intensity,[12]; [22],19.5 MFI
same,fluorescence intensity,[12]; [23],20.5 MFI
same,fluorescence intensity,[12]; [24],18.5 MFI
same,fluorescence intensity,[12]; [25],21 MFI
same,fluorescence intensity,[12]; [26],19.5 MFI
same,fluorescence intensity,[12]; [27],20.5 MFI
same,fluorescence intensity,[12]; [28],24.5 MFI
same,fluorescence intensity,[13]; [21],30 MFI
same,fluorescence intensity,[13]; [22],27.5 MFI
same,fluorescence intensity,[13]; [23],27.2 MFI
same,fluorescence intensity,[13]; [24],28.5 MFI
same,fluorescence intensity,[13]; [25],29.5 MFI
same,fluorescence intensity,[13]; [26],29.5 MFI
same,fluorescence intensity,[13]; [27],36.5 MFI
same,fluorescence intensity,[13]; [28],50.8 MFI
same,fluorescence intensity,[14]; [21],25.5 MFI
same,fluorescence intensity,[14]; [22],27.5 MFI
same,fluorescence intensity,[14]; [23],26.8 MFI
same,fluorescence intensity,[14]; [24],25.2 MFI
same,fluorescence intensity,[14]; [25],26.5 MFI
same,fluorescence intensity,[14]; [26],29 MFI
same,fluorescence intensity,[14]; [27],28 MFI
same,fluorescence intensity,[14]; [28],30.5 MFI
same,fluorescence intensity,[15]; [21],23.8 MFI
same,fluorescence intensity,[15]; [22],21.5 MFI
same,fluorescence intensity,[15]; [23],21.5 MFI
same,fluorescence intensity,[15]; [24],22 MFI
same,fluorescence intensity,[15]; [25],23 MFI
same,fluorescence intensity,[15]; [26],22.5 MFI
same,fluorescence intensity,[15]; [27],27 MFI
same,fluorescence intensity,[15]; [28],60.8 MFI
same,fluorescence intensity,[16]; [21],26.5 MFI
same,fluorescence intensity,[16]; [22],24.5 MFI
same,fluorescence intensity,[16]; [23],23 MFI
same,fluorescence intensity,[16]; [24],23.8 MFI
same,fluorescence intensity,[16]; [25],22 MFI
same,fluorescence intensity,[16]; [26],22.8 MFI
same,fluorescence intensity,[16]; [27],25 MFI
same,fluorescence intensity,[16]; [28],42.5 MFI
same,fluorescence intensity,[17]; [21],14.8 MFI
same,fluorescence intensity,[17]; [22],12.8 MFI
same,fluorescence intensity,[17]; [23],14.2 MFI
same,fluorescence intensity,[17]; [24],15 MFI
same,fluorescence intensity,[17]; [25],14.5 MFI
same,fluorescence intensity,[17]; [26],16.5 MFI
same,fluorescence intensity,[17]; [27],14 MFI
same,fluorescence intensity,[17]; [28],20 MFI
same,fluorescence intensity,[18]; [21],15.5 MFI
same,fluorescence intensity,[18]; [22],15 MFI
same,fluorescence intensity,[18]; [23],14.5 MFI
same,fluorescence intensity,[18]; [24],14.5 MFI
same,fluorescence intensity,[18]; [25],17.2 MFI
same,fluorescence intensity,[18]; [26],15.8 MFI
same,fluorescence intensity,[18]; [27],17.5 MFI
same,fluorescence intensity,[18]; [28],23.5 MFI
same,fluorescence intensity,[19]; [21],15 MFI
same,fluorescence intensity,[19]; [22],17 MFI
same,fluorescence intensity,[19]; [23],14.5 MFI
same,fluorescence intensity,[19]; [24],16.5 MFI
same,fluorescence intensity,[19]; [25],16 MFI
same,fluorescence intensity,[19]; [26],15.5 MFI
same,fluorescence intensity,[19]; [27],17.5 MFI
same,fluorescence intensity,[19]; [28],26 MFI
same,fluorescence intensity,[20]; [21],17.2 MFI
same,fluorescence intensity,[20]; [22],19.5 MFI
same,fluorescence intensity,[20]; [23],18 MFI
same,fluorescence intensity,[20]; [24],20 MFI
same,fluorescence intensity,[20]; [25],18.5 MFI
same,fluorescence intensity,[20]; [26],18.5 MFI
same,fluorescence intensity,[20]; [27],22.5 MFI
same,fluorescence intensity,[20]; [28],35.5 MFI
